Measurements reported in PubChem BioAssay AID1224826 (NIAID, 2016)
Purpose: 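Regulators of Tlr4 signalling leading to Tnf-alpha expression in macrophages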 (primary screen). System: RAW264.7 G9 macrophages from mouse bearing reporters for p65 (GFP) and the Tnf promoter (mCherry). Knock-down reagent: siRNA pool against mouse genes, 100 nM. Time to read-out: 16 h of LPS stimulation, after 2 days of siRNA transfection. Treatment: bacterial lipopolysaccharide (Salmonella minnesota R595), 10 ng/ml. Read-out: 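Nuclear mCherry signal of the Tnf promoter reporter measured by imaging after background removal, scaled to each plate median and turned into robust z-scores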. Reading the numbers: Tnf reporter robust z-score: higher = stronger Tnf promoter reporter signal after LPS. Active means: 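Called active when robust z-score is at most -1.3, matching the median of the Tlr4 knock-down control, or over 3; control wells and wells with under 50 cells never active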. Meaning of the calls: active = Tnf reporter clearly lowered or raised; inactive = no clear change in Tnf reporter.
Shown is a random part of about 17,000 deposited reagents. In the full data, about 1,110 (6.6%) were called active. 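Active means lowered or raised reporter signal; replicate intensities are raw and not normalised per plate.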 Reagents against one gene are numbered here. A reagent listed more than once was tested more than once; the source does not tell the runs apart. Not all columns of the deposit are shown.

target	reagent no.	Tnf reporter robust z-score	fewer than 50 cells in well	call
Defb4	1	0.04	enough cells in well	inactive
Fzd3	1	-0.47	enough cells in well	inactive
Pip4k2a	1	-0.99	enough cells in well	inactive
Fbxo7	1	-0.51	enough cells in well	inactive
Dnttip2	1	-0.04	enough cells in well	inactive
Pik3cb	1	0.54	enough cells in well	inactive
Pik3cb	1	0.45	enough cells in well	inactive
Mtcl3	1	0.56	enough cells in well	inactive
Slc31a2	1		fewer than 50 cells per well; well left out of calls	inactive
Mier3	1	1.27	enough cells in well	inactive
Tbc1d1	1		fewer than 50 cells per well; well left out of calls	inactive
Ctsa	1	1.19	enough cells in well	inactive
Las1l	1	0.45	enough cells in well	inactive
Zbp1	1	1.27	enough cells in well	inactive
Nxt2	1	-0.35	enough cells in well	inactive
Or5an10	1	-0.72	enough cells in well	inactive
Proc	1	-1.32	enough cells in well	active
Tmem109	1	2.57	enough cells in well	inactive
Rnase2b	1	-0.23	enough cells in well	inactive
Gm4827	1	-1.12	enough cells in well	inactive
Tnfaip3	1	1.16	enough cells in well	inactive
Vmn1r226	1	0.15	enough cells in well	inactive
Rab37	1	-0.35	enough cells in well	inactive
Mettl1	1	1.06	enough cells in well	inactive
F7	1	1.09	enough cells in well	inactive
Arpc5	1	0.77	enough cells in well	inactive
Shoc2	1		fewer than 50 cells per well; well left out of calls	inactive
Cep164	1	-0.73	enough cells in well	inactive
Cep164	2	-0.2	enough cells in well	inactive
Arpp21	1	-0.21	enough cells in well	inactive
Arpp21	2	-0.67	enough cells in well	inactive
Pphln1-ps1	1	0.77	enough cells in well	inactive
Rps3a1	1		fewer than 50 cells per well; well left out of calls	inactive
Erlin1	1	0.23	enough cells in well	inactive
Fbxw13	1	0.96	enough cells in well	inactive
Hyal1	1	0.38	enough cells in well	inactive
Nedd1	1	-0.66	enough cells in well	inactive
Ppid	1	-0.67	enough cells in well	inactive
Mst1r	1		fewer than 50 cells per well; well left out of calls	inactive
Tbca	1	-1.37	enough cells in well	active

As entered above.
Under “Tnf reporter robust z-score”, Pphln1-ps1 reads 0.77
For “Tnf reporter robust z-score”, Vmn1r226 reads 0.15
